Results published in article PMC11443168.
Results are given in words; binding and its absence hold for the method and conditions named. For some assays here: Binding seen in cells or lysates may run through a third protein. Some entries that bind do so weakly or less than the wild type. Tags and fused reporters may be left off the sequences shown.

Sequences of proteins named here, by UniProt entry; tags and fusion partners are left off. Residues count along the entry.
UniProt P30101, residues 25-505: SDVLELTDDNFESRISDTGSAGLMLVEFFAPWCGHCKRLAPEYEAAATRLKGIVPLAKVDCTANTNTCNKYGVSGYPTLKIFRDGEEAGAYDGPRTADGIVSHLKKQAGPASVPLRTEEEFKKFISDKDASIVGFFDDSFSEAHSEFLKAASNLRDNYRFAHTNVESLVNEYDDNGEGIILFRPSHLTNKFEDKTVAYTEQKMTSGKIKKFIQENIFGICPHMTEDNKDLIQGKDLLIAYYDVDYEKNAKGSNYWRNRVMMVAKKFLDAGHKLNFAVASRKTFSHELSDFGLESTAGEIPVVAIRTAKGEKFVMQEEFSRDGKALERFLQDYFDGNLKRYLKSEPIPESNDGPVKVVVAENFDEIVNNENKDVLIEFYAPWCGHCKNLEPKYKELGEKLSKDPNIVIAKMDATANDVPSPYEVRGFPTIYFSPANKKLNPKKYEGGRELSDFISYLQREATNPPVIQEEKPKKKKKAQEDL
UniProt P07237, residues 18-508: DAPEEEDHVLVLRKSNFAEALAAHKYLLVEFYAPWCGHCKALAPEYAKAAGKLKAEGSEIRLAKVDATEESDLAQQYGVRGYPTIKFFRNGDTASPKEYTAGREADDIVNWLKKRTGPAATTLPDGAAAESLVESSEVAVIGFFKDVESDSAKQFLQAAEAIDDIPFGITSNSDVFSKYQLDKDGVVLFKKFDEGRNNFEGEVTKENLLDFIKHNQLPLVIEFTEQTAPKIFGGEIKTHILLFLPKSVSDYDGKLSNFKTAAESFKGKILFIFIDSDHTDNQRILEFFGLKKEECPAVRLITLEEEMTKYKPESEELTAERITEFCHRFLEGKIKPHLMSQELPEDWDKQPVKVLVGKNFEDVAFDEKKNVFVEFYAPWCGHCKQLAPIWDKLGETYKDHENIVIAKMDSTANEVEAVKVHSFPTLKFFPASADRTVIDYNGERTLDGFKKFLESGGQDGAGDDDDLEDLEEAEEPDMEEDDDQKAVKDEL

T1: TMX5/TXNDC15, V5-tagged (TMX5-V5 WT) (UniProt Q96J42)
T1 sequence: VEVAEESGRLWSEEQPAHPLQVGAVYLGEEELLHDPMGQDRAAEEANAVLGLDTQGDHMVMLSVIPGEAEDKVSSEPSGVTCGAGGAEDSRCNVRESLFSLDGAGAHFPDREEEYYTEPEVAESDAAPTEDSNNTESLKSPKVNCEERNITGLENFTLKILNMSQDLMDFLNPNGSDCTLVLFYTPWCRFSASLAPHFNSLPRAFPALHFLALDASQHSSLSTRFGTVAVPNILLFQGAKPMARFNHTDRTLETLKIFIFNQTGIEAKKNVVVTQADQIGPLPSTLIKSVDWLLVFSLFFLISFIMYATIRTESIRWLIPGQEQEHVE

T2: TMX5_(C220A), V5-tagged (UniProt Q96J42)
T2 sequence: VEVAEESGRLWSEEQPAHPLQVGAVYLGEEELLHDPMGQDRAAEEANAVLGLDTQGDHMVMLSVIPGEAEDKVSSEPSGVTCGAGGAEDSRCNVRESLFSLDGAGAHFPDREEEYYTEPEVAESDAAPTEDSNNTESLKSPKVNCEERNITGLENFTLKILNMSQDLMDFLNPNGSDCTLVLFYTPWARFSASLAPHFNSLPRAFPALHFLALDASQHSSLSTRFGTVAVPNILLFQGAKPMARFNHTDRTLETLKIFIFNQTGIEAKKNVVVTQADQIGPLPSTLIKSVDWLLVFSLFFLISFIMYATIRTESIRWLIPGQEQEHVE

T3: HA-tagged ERp44 (ERp44wt) (UniProt Q9BS26)
T3 sequence: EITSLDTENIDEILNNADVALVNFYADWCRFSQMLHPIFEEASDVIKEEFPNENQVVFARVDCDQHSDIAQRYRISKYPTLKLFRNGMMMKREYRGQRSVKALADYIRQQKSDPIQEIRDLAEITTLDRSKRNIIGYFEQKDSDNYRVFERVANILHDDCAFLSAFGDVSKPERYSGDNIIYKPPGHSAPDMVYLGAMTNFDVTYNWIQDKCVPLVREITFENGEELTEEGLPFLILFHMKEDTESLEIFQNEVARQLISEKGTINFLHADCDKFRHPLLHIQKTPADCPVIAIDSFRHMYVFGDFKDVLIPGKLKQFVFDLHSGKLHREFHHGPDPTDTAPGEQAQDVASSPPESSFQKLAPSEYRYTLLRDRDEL


Tests used:
[1] = target: T1, TMX5/TXNDC15, V5-tagged (TMX5-V5 WT); assay: co-IP; V5-TMX5 or V5-TMX5 C220A immunoisolated with anti-V5 beads from HEK293 lysates (RIPA, 20 mM NEM); non-reducing and reducing SDS-PAGE; Western blot for endogenous PDI, ERp57, ERp44
TMX5_(C220A), V5-tagged [2] = target: T2, TMX5_(C220A), V5-tagged; assay: as above
[3] = target: T3, HA-tagged ERp44 (ERp44wt); assay: co-IP; HEK293 cells co-expressing V5-tagged TMX5 (or cysteine mutants) and HA-tagged ERp44; immunoisolation with anti-HA antibody (ERp44 as bait), non-reducing/reducing SDS-PAGE, Western blot with anti-V5
TMX5_(C220A), V5-tagged [4] = target: T2, TMX5_(C220A), V5-tagged; assay: non-reducing SDS-PAGE and Western blot of mixed disulfides; post-nuclear fractions of HEK293 cells co-transfected with V5-tagged TMX5 or TMX5 C220A and HA-tagged ERp44 or ERp44 C29S; no immunoprecipitation; anti-V5 blot in non-reducing and reducing conditions; TMX5-ss-ERp44 band

binding [3] | Molecule | further results
 | endogenous ERp57 (PDIA3) (from UniProt P30101 25-505) | binding [1]: binds; binding (TMX5_(C220A), V5-tagged [2]): binds
 | endogenous PDI (PDIA1) (from UniProt P07237 18-508) | binding [1]: binds; binding (TMX5_(C220A), V5-tagged [2]): binds
binds | TMX5/TXNDC15, V5-tagged (TMX5-V5 WT) (protein, UniProt Q96J42 33-360) VEVAEESGRLWSEEQPAHPLQVGAVYLGEEELLHDPMGQDRAAEEANAVLGLDTQGDHMVMLSVIPGEAEDKVSSEPSGVTCGAGGAEDSRCNVRESLFSLDGAGAHFPDREEEYYTEPEVAESDAAPTEDSNNTESLKSPKVNCEERNITGLENFTLKILNMSQDLMDFLNPNGSDCTLVLFYTPWCRFSASLAPHFNSLPRAFPALHFLALDASQHSSLSTRFGTVAVPNILLFQGAKPMARFNHTDRTLETLKIFIFNQTGIEAKKNVVVTQADQIGPLPSTLIKSVDWLLVFSLFFLISFIMYATIRTESIRWLIPGQEQEHVE | 
binds | TMX5_(C210A), V5-tagged (protein, UniProt Q96J42 33-360) VEVAEESGRLWSEEQPAHPLQVGAVYLGEEELLHDPMGQDRAAEEANAVLGLDTQGDHMVMLSVIPGEAEDKVSSEPSGVTCGAGGAEDSRCNVRESLFSLDGAGAHFPDREEEYYTEPEVAESDAAPTEDSNNTESLKSPKVNCEERNITGLENFTLKILNMSQDLMDFLNPNGSDATLVLFYTPWCRFSASLAPHFNSLPRAFPALHFLALDASQHSSLSTRFGTVAVPNILLFQGAKPMARFNHTDRTLETLKIFIFNQTGIEAKKNVVVTQADQIGPLPSTLIKSVDWLLVFSLFFLISFIMYATIRTESIRWLIPGQEQEHVE | 
binds | TMX5_(C114A), V5-tagged (protein, UniProt Q96J42 33-360) VEVAEESGRLWSEEQPAHPLQVGAVYLGEEELLHDPMGQDRAAEEANAVLGLDTQGDHMVMLSVIPGEAEDKVSSEPSGVTAGAGGAEDSRCNVRESLFSLDGAGAHFPDREEEYYTEPEVAESDAAPTEDSNNTESLKSPKVNCEERNITGLENFTLKILNMSQDLMDFLNPNGSDCTLVLFYTPWCRFSASLAPHFNSLPRAFPALHFLALDASQHSSLSTRFGTVAVPNILLFQGAKPMARFNHTDRTLETLKIFIFNQTGIEAKKNVVVTQADQIGPLPSTLIKSVDWLLVFSLFFLISFIMYATIRTESIRWLIPGQEQEHVE | 
binds | TMX5_(C124A), V5-tagged (protein, UniProt Q96J42 33-360) VEVAEESGRLWSEEQPAHPLQVGAVYLGEEELLHDPMGQDRAAEEANAVLGLDTQGDHMVMLSVIPGEAEDKVSSEPSGVTCGAGGAEDSRANVRESLFSLDGAGAHFPDREEEYYTEPEVAESDAAPTEDSNNTESLKSPKVNCEERNITGLENFTLKILNMSQDLMDFLNPNGSDCTLVLFYTPWCRFSASLAPHFNSLPRAFPALHFLALDASQHSSLSTRFGTVAVPNILLFQGAKPMARFNHTDRTLETLKIFIFNQTGIEAKKNVVVTQADQIGPLPSTLIKSVDWLLVFSLFFLISFIMYATIRTESIRWLIPGQEQEHVE | 
binds | TMX5_(C220A), V5-tagged (protein, UniProt Q96J42 33-360) VEVAEESGRLWSEEQPAHPLQVGAVYLGEEELLHDPMGQDRAAEEANAVLGLDTQGDHMVMLSVIPGEAEDKVSSEPSGVTCGAGGAEDSRCNVRESLFSLDGAGAHFPDREEEYYTEPEVAESDAAPTEDSNNTESLKSPKVNCEERNITGLENFTLKILNMSQDLMDFLNPNGSDCTLVLFYTPWARFSASLAPHFNSLPRAFPALHFLALDASQHSSLSTRFGTVAVPNILLFQGAKPMARFNHTDRTLETLKIFIFNQTGIEAKKNVVVTQADQIGPLPSTLIKSVDWLLVFSLFFLISFIMYATIRTESIRWLIPGQEQEHVE | 
binds | TMX5_(C177A), V5-tagged (protein, UniProt Q96J42 33-360) VEVAEESGRLWSEEQPAHPLQVGAVYLGEEELLHDPMGQDRAAEEANAVLGLDTQGDHMVMLSVIPGEAEDKVSSEPSGVTCGAGGAEDSRCNVRESLFSLDGAGAHFPDREEEYYTEPEVAESDAAPTEDSNNTESLKSPKVNAEERNITGLENFTLKILNMSQDLMDFLNPNGSDCTLVLFYTPWCRFSASLAPHFNSLPRAFPALHFLALDASQHSSLSTRFGTVAVPNILLFQGAKPMARFNHTDRTLETLKIFIFNQTGIEAKKNVVVTQADQIGPLPSTLIKSVDWLLVFSLFFLISFIMYATIRTESIRWLIPGQEQEHVE | 
 | HA-tagged ERp44_(C29S) (protein, UniProt Q9BS26 30-406) EITSLDTENIDEILNNADVALVNFYADWSRFSQMLHPIFEEASDVIKEEFPNENQVVFARVDCDQHSDIAQRYRISKYPTLKLFRNGMMMKREYRGQRSVKALADYIRQQKSDPIQEIRDLAEITTLDRSKRNIIGYFEQKDSDNYRVFERVANILHDDCAFLSAFGDVSKPERYSGDNIIYKPPGHSAPDMVYLGAMTNFDVTYNWIQDKCVPLVREITFENGEELTEEGLPFLILFHMKEDTESLEIFQNEVARQLISEKGTINFLHADCDKFRHPLLHIQKTPADCPVIAIDSFRHMYVFGDFKDVLIPGKLKQFVFDLHSGKLHREFHHGPDPTDTAPGEQAQDVASSPPESSFQKLAPSEYRYTLLRDRDEL | binding (TMX5_(C220A), V5-tagged [4]): no binding
